Values quoted from earlier work in patent US20230241060A1, “GLUCOCORTICOID-SPARING AGENT” (METRIOPHARM AG, priority 2020, published 2023).
For at least one compound, name, drawing or mass did not settle the structure.

Settings: cited from earlier work

C[C@]12CCC(=O)C=C1CC[C@H]1[C@@H]3CC[C@](O)(C(=O)CO)[C@@]3(C)C[C@H](O)[C@@]12F [fludrocortisone]
effect duration: approximately 24 hours
